{
  "sequences": {"note": "Amino acid sequences for entries named in this document (tags omitted). A change or cut given only in a name is not applied to a line headed by its entry.", "UniProt O94782": "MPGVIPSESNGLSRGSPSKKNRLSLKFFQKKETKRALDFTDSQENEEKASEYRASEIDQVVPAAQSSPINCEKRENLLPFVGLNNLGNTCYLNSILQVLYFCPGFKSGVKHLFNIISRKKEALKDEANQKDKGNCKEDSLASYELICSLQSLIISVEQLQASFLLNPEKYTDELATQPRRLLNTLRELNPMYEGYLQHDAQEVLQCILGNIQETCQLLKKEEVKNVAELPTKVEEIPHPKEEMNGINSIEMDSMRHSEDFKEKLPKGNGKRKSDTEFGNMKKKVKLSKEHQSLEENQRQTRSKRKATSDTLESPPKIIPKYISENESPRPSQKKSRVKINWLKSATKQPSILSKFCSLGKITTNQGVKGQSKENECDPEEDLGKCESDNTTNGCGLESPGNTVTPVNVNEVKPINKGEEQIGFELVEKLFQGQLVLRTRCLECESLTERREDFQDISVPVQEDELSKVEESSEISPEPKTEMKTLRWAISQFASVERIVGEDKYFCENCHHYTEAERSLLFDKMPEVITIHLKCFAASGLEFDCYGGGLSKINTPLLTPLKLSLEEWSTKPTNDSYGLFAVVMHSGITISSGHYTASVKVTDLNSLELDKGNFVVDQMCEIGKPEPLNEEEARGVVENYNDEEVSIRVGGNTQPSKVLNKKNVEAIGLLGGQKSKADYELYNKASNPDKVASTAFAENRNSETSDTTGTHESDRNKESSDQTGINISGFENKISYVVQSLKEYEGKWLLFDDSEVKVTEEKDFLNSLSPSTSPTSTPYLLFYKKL"},
  "source": "PubChem BioAssay AID743255",
  "about": "(National Center for Advancing Translational Sciences (NCATS), 2014)",
  "note": "The whole screen tested about 390,000 compounds, of which about 910 (0.23%) were called active. Inconclusive means that the source gave no clear call. Such entries were picked first, then a sample of the others. Calls follow the shape of the dose curve; as a rule, active = well fitted inhibition curve with a large enough effect; inconclusive = small, poorly fitted or top-dose-only effect; inactive = no such curve, though single readings can be large or run the other way. Potencies of inconclusive entries are doubtful fits and often do not repeat. % is scaled to controls: 0 for no effect and ±100 for the full control effect; potency is read from the fitted curve at half-maximal effect.",
  "data": [
    {"target": "Ubiquitin carboxyl-terminal hydrolase 1 (Homo sapiens) (UniProt O94782)", "assay": "Inhibitors of USP1/UAF1: Primary Screen; also: nearly all actives have a fitted effect of over 60% in size", "conditions": "recombinant USP1/UAF1, Ub-Rhodamine cleavage fluorescence; activity change, negative = inhibition: at 57.1 µM (top of the series)", "how_it_was_run": "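1 nM enzyme complex + cpd, 15 min RT; start with Ub-Rho 150nM final; kinetic fluorescence ex 480/em 540, 6 reads q60 s. Buffer 50mM HEPES pH 7.8, 0.5mM EDTA, 0.1 mg/ml BSA, 1mM TCEP, 0.01% Tween-20.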", "values": [
      {"smiles": "O=C(Nc1c(F)cccc1F)C(c1ccccc1)c1ccccc1", "Potency": "inconclusive: 8.91 µM [inhibitor, single point]"},
      {"smiles": "CCc1ccc(Nc2cc(C)nc3nc(Cc4ccc(Cl)cc4)nn23)cc1", "activity change, negative = inhibition": "inactive: -16.8%"},
      {"smiles": "COc1cccc(-c2ocnc2C(=O)Nc2ccc(N3CCOCC3)cc2N2CCOCC2)c1", "Potency": "inconclusive: 63.1 µM [inhibitor, partial curve, poor fit]"},
      {"smiles": "COc1ccccc1-c1nnc2sc(COc3ccc(F)cc3)nn12", "activity change, negative = inhibition": "inactive: -15.4%"},
      {"smiles": "Cc1ccc(NC(=O)C2CCN(C(=O)NC3CCCCC3)CC2)cc1Cl", "activity change, negative = inhibition": "inactive: -9.84%"},
      {"smiles": "CCC(C(=O)Nc1cccc(C#N)c1)n1c(=O)c(-c2ccccc2NC(C)=O)nc2ccccc21", "note": "(configuration not stated)", "Potency": "inconclusive: 35.5 µM [inhibitor, partial curve]"},
      {"smiles": "COc1ccc(C=NCCc2ccc(OC)c(OC)c2)cc1OC", "Potency": "inconclusive: 6.31 µM [inhibitor, partial curve]"},
      {"smiles": "CCOC(=O)/C(=C\\c1c[nH]c2ccccc12)NC(C)=O", "activity change, negative = inhibition": "inactive: -16.3%"},
      {"smiles": "O=C(NCc1ccccc1Cl)c1cccc(C(F)(F)F)c1", "Potency": "inconclusive: 11.2 µM [inhibitor, partial curve]"},
      {"smiles": "CC1=NN(c2cccc(C(=O)O)c2)C(=O)/C1=C\\C=C\\c1ccco1", "Potency": "inconclusive: 50.1 µM [inhibitor, single point]"},
      {"smiles": "N/C(=N\\OC(=O)CCC1CCCC1)c1ccccn1", "activity change, negative = inhibition": "inactive: -16.1%"},
      {"smiles": "Cc1ccc(CN2c3ccccc3S(=O)(=O)c3ccccc32)cc1", "activity change, negative = inhibition": "inactive: -13%"},
      {"smiles": "Cc1ccc2oc(=O)c3cc(C(=O)N(Cc4ccccc4)C(C)C)sc3c2c1", "Potency": "inconclusive: 3.55 µM [inhibitor, full curve]"},
      {"smiles": "O=C(COc1ccc(Cl)cc1)NCCNc1ccc([N+](=O)[O-])cc1", "activity change, negative = inhibition": "inactive: -13.8%"},
      {"smiles": "CC1CC(C)CN(C(=O)CCNS(=O)(=O)c2ccc3c(c2)CCC(=O)N3)C1", "note": "(configuration not stated)", "activity change, negative = inhibition": "inactive: -14.8%"},
      {"smiles": "O=C(Nc1cc(C(F)(F)F)ccc1N1CCOCC1)c1ccc2ccccc2n1", "Potency": "inconclusive: 35.5 µM [inhibitor, partial curve]"},
      {"smiles": "O=C(N/C(=C\\c1ccc([N+](=O)[O-])cc1)C(=O)N1CCOCC1)c1ccccc1", "Potency": "inconclusive: 0.794 µM [inhibitor, full curve]"},
      {"smiles": "COc1cnc(-c2ccccn2)nc1Sc1ccc(C)cc1", "Potency": "inconclusive: 0.355 µM [inhibitor, full curve, poor fit]"},
      {"smiles": "CCOc1ccc(C=NNc2ccc(S(=O)(=O)Nc3ccccc3C(=O)O)cc2[N+](=O)[O-])cc1", "Potency": "inconclusive: 25.1 µM [inhibitor, single point]"},
      {"smiles": "CCCNC(=O)C(Cc1ccccc1)NC(=O)c1ccccc1", "note": "(configuration not stated)", "Potency": "inconclusive: 7.94 µM [inhibitor, partial curve]"},
      {"smiles": "Cc1ccc(C(=O)OCC(=O)N(C)c2ccccc2)c(C)c1", "Potency": "inconclusive: 6.31 µM [inhibitor, single point]"},
      {"smiles": "CCc1nnc(NC(=O)CSCc2cc(=O)c3ccc(C)cc3[nH]2)s1", "Potency": "inconclusive: 20 µM [inhibitor, partial curve, poor fit]"},
      {"smiles": "FC(F)(F)c1cc(CCN2C(=S)NC[C@@H]2Cc2ccccc2)cc(C(F)(F)F)c1", "Potency": "inconclusive: 39.8 µM [inhibitor, partial curve]"},
      {"smiles": "CCOC(=O)CN1C(=O)S/C(=C/C=C/c2ccc(N(C)C)cc2)C1=O", "Potency": "inconclusive: 39.8 µM [inhibitor, single point]"},
      {"smiles": "O=C1/C(=C/c2ccc(O)c(O)c2)SC(=S)N1Nc1ccccc1", "Potency": "inconclusive: 10 µM [inhibitor, full curve, poor fit]"},
      {"smiles": "Clc1cccc(-c2ccc(C=Nc3ccc(N4CCOCC4)cc3)o2)c1", "Potency": "inconclusive: 50.1 µM [inhibitor, partial curve, poor fit]"},
      {"smiles": "Cc1ccn2c(CNCCn3nc(C)cc3C)c(C(=O)N3CCCCCC3)nc2c1", "activity change, negative = inhibition": "inactive: -20.3%"},
      {"smiles": "Cc1ccc(CSc2cn(CC(=O)N3CCCCC3)c3ccccc23)cc1", "Potency": "inconclusive: 0.891 µM [inhibitor, full curve, poor fit]"},
      {"smiles": "Cc1cccc2cc(/C=C/C(=O)c3ccco3)c(Cl)nc12", "Potency": "inconclusive: 5.01 µM [inhibitor, partial curve, poor fit]"},
      {"smiles": "COCCNC(=O)C1CCCN(S(=O)(=O)c2ccc3c(ccn3C)c2)C1", "note": "(configuration not stated)", "Potency": "inconclusive: 50.1 µM [inhibitor, partial curve]"},
      {"smiles": "CCOC(=O)C(C)Sc1nc(=O)n2cccc(C)c2n1", "note": "(configuration not stated)", "Potency": "inconclusive: 44.7 µM [inhibitor, partial curve]"},
      {"smiles": "Cc1nn2c3c(cnc2c1-c1ccccc1)C(=O)CCC3", "activity change, negative = inhibition": "inactive: -21.7%"},
      {"smiles": "CCOc1ccc(-c2c(C(=O)N/N=C/c3cccnc3)nnn2-c2nonc2N)cc1", "Potency": "inconclusive: 31.6 µM [inhibitor, partial curve]"},
      {"smiles": "O=C(Cc1ccccc1)Nc1ccc(C(=O)Nc2ccc(O)cc2)cc1", "activity change, negative = inhibition": "inactive: -23.8%"},
      {"smiles": "Cc1ccc(C2=Nc3ccccc3N(CC(=O)Nc3cccc(F)c3)C(=O)C2)cc1C", "Potency": "inconclusive: 39.8 µM [inhibitor, partial curve, poor fit]"},
      {"smiles": "Cc1c(C(=O)Nc2ccccc2Br)oc2ccc(S(=O)(=O)N3CCOCC3)cc12", "Potency": "inconclusive: 0.708 µM [inhibitor, full curve, poor fit]"},
      {"smiles": "COc1ccc(CCC(=O)NCc2nc3cccnc3n2Cc2cccc(OC)c2)cc1", "activity change, negative = inhibition": "inactive: 6.01%"},
      {"smiles": "COc1ccc([C@H]2N[C@]3(CCCN(Cc4ccc(C(F)(F)F)cc4)C3=O)[C@H]3C(=O)N(Cc4ccccc4)C(=O)[C@@H]23)cc1", "Potency": "inconclusive: 39.8 µM [inhibitor, partial curve, poor fit]"},
      {"smiles": "CCSc1ncc(/C=N/Nc2ccc(Cl)cc2)n1C", "activity change, negative = inhibition": "inactive: -7.39%"},
      {"smiles": "CC[C@@H]1CC=C[C@H]2[C@H]1C(=O)N(Cc1ccccc1)[C@H]2c1ccc(C(F)(F)F)cc1", "Potency": "inconclusive: 35.5 µM [inhibitor, single point]"},
      {"smiles": "COc1ccc2[nH]c3c(c2c1)CCN1C(=O)C(CC(=O)NCC24CC5CC(CC(C5)C2)C4)C[C@H](C(=O)N2CCCCC2)[C@@]31C", "note": "(some centres not stated)", "Potency": "inconclusive: 44.7 µM [inhibitor, partial curve, poor fit]"},
      {"smiles": "Cc1ccc(NC(=S)NNS(=O)(=O)c2ccc3ccccc3c2)cc1Cl", "Potency": "inconclusive: 17.8 µM [inhibitor, partial curve, poor fit]"}
    ]}
  ]
}
